This is an account of results in PMC11352776.

The chains behind the UniProt entries cited, without tags or fusion partners. Residues count along the entry.
UniProt E9PVD3, residues 36-3291: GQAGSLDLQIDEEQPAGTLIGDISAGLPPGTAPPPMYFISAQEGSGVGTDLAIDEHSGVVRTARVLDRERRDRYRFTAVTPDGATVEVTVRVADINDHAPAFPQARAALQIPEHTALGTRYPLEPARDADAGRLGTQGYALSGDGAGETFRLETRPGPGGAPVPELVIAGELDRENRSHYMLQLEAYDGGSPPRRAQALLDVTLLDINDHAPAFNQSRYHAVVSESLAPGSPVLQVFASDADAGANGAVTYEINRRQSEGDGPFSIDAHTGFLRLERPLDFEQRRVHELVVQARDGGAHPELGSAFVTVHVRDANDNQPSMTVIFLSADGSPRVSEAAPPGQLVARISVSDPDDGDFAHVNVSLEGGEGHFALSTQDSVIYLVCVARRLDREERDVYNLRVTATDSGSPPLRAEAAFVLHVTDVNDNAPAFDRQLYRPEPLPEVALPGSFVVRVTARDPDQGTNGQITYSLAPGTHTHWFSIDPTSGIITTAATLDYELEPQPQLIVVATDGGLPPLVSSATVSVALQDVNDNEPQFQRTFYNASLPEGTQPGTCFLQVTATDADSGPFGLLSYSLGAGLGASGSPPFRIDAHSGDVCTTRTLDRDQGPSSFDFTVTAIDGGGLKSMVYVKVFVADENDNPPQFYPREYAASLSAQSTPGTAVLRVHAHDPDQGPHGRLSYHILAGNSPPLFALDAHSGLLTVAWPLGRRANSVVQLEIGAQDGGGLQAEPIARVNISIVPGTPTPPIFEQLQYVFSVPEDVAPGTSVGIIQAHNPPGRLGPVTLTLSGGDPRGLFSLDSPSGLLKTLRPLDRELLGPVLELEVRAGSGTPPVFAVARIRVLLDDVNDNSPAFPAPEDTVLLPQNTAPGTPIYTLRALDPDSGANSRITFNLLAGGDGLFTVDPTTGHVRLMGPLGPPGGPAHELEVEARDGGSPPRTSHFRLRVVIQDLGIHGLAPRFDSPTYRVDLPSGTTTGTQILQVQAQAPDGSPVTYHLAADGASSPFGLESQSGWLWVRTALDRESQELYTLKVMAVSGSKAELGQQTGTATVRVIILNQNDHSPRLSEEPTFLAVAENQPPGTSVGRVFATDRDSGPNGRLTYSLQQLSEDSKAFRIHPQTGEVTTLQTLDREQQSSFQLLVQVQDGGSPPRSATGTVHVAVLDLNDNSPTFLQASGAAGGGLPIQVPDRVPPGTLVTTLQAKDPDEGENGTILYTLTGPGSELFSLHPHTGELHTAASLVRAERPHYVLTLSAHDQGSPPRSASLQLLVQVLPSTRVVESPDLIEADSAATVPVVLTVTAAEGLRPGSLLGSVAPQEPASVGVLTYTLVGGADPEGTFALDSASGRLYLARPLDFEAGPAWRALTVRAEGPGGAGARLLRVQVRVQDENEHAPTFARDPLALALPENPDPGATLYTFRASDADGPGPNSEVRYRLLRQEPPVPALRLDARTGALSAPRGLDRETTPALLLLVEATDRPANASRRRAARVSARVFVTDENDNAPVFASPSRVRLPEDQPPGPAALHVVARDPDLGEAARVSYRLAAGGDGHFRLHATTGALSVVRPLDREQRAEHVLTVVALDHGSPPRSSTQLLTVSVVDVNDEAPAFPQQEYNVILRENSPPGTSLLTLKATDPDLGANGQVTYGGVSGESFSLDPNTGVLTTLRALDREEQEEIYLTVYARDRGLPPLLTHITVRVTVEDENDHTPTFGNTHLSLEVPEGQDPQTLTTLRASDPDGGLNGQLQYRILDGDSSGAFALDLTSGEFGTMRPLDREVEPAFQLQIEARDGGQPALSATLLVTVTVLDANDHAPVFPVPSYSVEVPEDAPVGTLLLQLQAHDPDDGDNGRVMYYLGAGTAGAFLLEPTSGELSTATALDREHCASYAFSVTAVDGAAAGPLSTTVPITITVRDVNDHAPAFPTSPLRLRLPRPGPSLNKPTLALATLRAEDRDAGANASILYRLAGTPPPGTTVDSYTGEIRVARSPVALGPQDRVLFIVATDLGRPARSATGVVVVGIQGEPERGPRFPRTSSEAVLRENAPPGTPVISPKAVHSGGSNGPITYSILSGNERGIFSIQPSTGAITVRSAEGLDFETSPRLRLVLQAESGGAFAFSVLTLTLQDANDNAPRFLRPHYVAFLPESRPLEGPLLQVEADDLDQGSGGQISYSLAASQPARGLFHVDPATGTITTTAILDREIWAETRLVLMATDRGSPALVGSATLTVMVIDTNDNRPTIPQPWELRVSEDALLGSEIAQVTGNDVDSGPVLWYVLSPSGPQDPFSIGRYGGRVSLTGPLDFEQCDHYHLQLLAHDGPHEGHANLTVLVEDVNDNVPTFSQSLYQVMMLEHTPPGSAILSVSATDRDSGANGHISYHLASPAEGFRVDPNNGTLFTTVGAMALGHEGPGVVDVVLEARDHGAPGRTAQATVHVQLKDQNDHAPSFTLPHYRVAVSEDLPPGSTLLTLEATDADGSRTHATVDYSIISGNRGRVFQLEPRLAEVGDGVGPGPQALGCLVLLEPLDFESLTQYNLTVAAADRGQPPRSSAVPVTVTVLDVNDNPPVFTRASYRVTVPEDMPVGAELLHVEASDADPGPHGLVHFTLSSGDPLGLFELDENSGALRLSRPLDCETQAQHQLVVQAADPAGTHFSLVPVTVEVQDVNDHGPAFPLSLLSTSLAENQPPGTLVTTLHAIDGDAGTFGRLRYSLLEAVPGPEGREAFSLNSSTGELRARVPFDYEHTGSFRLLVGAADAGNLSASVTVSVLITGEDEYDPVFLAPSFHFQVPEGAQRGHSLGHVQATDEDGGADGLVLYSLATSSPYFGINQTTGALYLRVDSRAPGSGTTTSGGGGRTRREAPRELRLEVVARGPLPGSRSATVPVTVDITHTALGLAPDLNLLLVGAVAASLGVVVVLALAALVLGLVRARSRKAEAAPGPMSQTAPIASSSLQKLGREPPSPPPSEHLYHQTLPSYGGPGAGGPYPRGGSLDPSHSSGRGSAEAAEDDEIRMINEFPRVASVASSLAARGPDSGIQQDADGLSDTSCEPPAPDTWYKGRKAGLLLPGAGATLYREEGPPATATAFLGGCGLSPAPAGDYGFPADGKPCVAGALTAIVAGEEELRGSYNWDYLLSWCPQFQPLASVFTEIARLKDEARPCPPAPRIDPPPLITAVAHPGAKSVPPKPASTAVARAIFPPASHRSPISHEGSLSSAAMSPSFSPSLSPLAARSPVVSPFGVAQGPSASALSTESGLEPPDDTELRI
UniProt Q9WTS6: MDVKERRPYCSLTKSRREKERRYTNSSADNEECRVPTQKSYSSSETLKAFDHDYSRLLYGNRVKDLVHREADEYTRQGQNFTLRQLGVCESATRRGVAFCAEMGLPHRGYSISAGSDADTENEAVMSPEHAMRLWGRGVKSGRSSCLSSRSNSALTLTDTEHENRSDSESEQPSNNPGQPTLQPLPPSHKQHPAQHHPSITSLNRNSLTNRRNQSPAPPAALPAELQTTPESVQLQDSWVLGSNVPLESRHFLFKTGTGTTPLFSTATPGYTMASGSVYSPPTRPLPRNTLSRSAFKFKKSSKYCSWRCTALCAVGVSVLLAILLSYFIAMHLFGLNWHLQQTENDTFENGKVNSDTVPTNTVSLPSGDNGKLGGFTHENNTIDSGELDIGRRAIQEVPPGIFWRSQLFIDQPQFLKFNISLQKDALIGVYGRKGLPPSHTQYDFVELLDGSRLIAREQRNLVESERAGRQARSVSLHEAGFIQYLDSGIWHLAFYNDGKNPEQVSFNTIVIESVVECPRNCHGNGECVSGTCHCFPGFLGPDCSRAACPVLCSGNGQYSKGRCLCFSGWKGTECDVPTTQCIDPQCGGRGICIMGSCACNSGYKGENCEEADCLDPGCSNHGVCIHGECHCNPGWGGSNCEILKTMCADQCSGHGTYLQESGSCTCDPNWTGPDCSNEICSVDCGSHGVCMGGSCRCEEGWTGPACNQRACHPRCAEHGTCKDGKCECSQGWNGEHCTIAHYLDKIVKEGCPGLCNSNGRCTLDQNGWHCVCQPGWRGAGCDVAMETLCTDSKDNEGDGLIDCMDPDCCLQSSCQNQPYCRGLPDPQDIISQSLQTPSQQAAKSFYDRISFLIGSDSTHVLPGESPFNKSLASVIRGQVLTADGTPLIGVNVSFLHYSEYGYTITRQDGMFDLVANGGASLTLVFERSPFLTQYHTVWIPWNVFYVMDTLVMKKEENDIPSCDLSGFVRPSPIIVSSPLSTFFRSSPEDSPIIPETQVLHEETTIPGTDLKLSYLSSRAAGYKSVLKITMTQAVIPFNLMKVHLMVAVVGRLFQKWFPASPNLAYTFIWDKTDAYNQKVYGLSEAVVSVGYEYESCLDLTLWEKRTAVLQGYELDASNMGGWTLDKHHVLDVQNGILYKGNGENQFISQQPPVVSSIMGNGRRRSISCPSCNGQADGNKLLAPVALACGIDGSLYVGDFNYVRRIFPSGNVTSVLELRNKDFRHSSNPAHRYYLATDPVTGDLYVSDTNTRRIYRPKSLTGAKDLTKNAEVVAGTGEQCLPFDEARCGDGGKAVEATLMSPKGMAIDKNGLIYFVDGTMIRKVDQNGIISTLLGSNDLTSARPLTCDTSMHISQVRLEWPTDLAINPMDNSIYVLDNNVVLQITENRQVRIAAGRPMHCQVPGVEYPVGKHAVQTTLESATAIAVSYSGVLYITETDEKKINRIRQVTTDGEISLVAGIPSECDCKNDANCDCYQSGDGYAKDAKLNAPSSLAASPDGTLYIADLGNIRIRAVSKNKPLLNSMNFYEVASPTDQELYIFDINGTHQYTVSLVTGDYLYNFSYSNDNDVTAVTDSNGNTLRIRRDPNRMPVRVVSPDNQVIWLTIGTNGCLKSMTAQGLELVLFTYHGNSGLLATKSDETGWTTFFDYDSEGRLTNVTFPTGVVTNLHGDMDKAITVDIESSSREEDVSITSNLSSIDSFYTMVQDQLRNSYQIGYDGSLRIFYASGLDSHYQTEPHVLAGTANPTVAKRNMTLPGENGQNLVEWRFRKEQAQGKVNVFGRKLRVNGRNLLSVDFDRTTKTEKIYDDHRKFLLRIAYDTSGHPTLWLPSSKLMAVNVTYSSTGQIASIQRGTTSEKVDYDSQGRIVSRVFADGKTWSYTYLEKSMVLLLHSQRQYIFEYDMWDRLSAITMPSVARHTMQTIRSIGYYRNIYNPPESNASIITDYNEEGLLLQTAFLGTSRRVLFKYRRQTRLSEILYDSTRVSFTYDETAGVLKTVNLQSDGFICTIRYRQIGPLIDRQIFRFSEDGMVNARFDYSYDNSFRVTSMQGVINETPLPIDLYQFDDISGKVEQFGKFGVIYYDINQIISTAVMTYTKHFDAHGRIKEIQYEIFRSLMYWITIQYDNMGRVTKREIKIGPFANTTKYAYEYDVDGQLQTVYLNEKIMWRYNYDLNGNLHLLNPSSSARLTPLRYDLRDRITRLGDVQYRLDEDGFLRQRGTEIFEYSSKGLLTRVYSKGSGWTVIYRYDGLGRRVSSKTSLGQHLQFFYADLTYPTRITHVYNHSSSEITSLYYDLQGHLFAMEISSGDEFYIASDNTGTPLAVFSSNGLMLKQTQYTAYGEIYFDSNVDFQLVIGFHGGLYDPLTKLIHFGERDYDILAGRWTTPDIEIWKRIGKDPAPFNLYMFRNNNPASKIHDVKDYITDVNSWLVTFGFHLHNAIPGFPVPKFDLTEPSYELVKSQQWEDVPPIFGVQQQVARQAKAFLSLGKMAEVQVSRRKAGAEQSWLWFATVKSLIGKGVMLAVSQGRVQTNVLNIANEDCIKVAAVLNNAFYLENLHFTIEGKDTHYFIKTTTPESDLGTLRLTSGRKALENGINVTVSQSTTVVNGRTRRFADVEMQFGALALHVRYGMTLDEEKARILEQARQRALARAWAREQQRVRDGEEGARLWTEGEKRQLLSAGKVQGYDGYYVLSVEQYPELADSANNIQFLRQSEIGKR

This test addresses T1, signal peptide sequence-deleted mouse LOTUS having streptavidin-binding protein (SBP)- and FLAG-tag at the N terminus (SBP-FLAG-LOTUS), overexpressed in Neuro2A cells (mouse) (UniProt Q8R555).
T1 sequence: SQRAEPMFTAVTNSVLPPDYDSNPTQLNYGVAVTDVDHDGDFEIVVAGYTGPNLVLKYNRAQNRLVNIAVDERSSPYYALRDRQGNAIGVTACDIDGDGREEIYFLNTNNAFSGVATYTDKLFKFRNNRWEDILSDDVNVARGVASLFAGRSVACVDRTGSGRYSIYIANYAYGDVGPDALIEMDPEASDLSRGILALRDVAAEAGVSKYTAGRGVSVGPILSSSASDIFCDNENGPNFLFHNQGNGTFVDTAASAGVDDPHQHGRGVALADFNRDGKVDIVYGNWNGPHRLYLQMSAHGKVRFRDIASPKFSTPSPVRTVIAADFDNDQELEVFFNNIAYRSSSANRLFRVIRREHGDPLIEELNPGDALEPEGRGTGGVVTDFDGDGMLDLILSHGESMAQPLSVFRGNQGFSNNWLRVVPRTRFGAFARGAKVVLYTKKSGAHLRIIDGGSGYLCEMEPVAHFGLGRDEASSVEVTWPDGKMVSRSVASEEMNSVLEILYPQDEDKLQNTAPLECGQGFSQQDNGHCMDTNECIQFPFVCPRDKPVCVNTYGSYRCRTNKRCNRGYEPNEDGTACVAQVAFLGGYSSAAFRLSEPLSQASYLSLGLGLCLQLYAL
Description: affinity purification with mass spectrometry; lysates (1% Nonidet P-40, 137 mM NaCl, 20 mM Tris-Cl pH 7.5) of Neuro2A cells overexpressing SBP-FLAG-LOTUS applied to streptavidin resins; SDS-PAGE bands excised, in-gel digestion, LC-MS/MS.

These are yes or no findings as the source states them, for the method shown. Binding seen in cells or lysates may run through a third protein. These calls come from enrichment with a bait or labelling near it, and not all partners need be listed. Where a sequence is shown, tags or fusion partners need not be part of it.

For “Protocadherin-16 (endogenous, Neuro2A cells) (from UniProt E9PVD3 36-3291)”, the binding entry is on record as “binds”.
As for “Teneurin-3 (endogenous, Neuro2A cells) (from UniProt Q9WTS6 1-2715)”, the entry is “binds”; as for “Teneurin-4 (endogenous, Neuro2A cells) (from UniProt Q3UHK6 1-2771)”, “binds”.

B1: Integrin alpha-Iib (endogenous, Neuro2A cells) (protein, UniProt Q9QUM0 32-1033)
chain: LNLDSEKFSVYAGPNGSHFGFSVDFHKDKHGSVSIVVGAPRALNASQEETGAVFLCPWKANGGKCNPLLFDLRDETRNLGFQIFQTFKTGQGLGASVVSWNDVIVACAPWQHWNVLEKRDEAEKTPVGGCFLAQLQSGGRAEYSPCRANTMSSVYAESFRGDKRYCEAGFSLAVTQAGELVLGAPGGYFFLGLLARVPIENIISSYRPGTLLWHVSNQRFTYDNSNPVFFDGYRGYSVAVGEFDGDPSTTEYVSGAPTWSWTLGAVEILDSYYQPLHRLHGEQMASYFGHSVAVTDVNGDGRHDLLVGAPLYMESRADRKLAEVGRVYLFLQPKGPQALSTPTLLLTGTQLYGRFGSAIAPLGDLNRDGYNDIAVAAPYGGPSGQGQVLIFLGQSEGLSPRPSQVLDSPFPTGSGFGFSLRGAVDIDDNGYPDLIVGAYGASKVAVYRAQPVVMATVQLMVQDSLNPTLKNCVLDQTKTPVSCFNIQMCVGATGHNIPQKLHLKAELQLDLQKPRQGRRVLLLASQQASLTLSLDLGGRDKPICHTTGAFLRDEADFRDKLSPIVLSLNVSLPPEETGGAPAVVLHGETHVQEQTRIILDCGEDDLCVPQLRLTATAGDSPLLIGADNVLELKIEAANDGEGAYEAELAVHLPPGAHYMRALSNIEGFERLVCTQKKENESRVALCELGNPMKKDTRIGITMLVSVENLEEAGESVSFQLQVRSKNSQNPNSKVVMLPVAIQAEATVELRGNSFPASLVVAAEEGDREQEDLDRWVSRLEHTYELHNIGPGTVNGLRLLIHIPGQSQPSDLLYILDVQPQGGLLCSTQPSPKVDWKLSTPSPSSIRPVHHQRERRQAFLQGPKPGQQDPVLVSCDGSASCTVVECELREMVRGQRAMVTVQVMLGLSSLRQRPQEQFVLQSHAWFNVSSLPYSVPVVSLPSGQARVQTQLLRALEERAIPVWWVLVGVLGGLLLLTLLVLAMWKAGFFKRNRPPLEEDEEEE
As for B1, the binding result is on record as “binds”.

B2: Integrin alpha-6 (endogenous, Neuro2A cells) (protein, UniProt Q61739 24-1091)
chain: FNLDTREDNVIRKSGDPGSLFGFSLAMHWQLQPEDKRLLLVGAPRAEALPLQRANRTGGLYSCDITSRGPCTRIEFDNDADPMSESKEDQWMGVTVQSQGPGGKVVTCAHRYEKRQHVNTKQESRDIFGRCYVLSQNLRIEDDMDGGDWSFCDGRLRGHEKFGSCQQGVAATFTKDFHYIVFGAPGTYNWKGIVRVEQKNNTFFDMNIFEDGPYEVGGETDHDESLVPVPANSYLGFSLDSGKGIVSKDDITFVSGAPRANHSGAVVLLKRDMKSAHLLPEYIFDGEGLASSFGYDVAVVDLNADGWQDIVIGAPQYFDRDGEVGGAVYVYINQQGKWSNVKPIRLNGTKDSMFGISVKNIGDINQDGYPDIAVGAPYDDLGKVFIYHGSPTGIITKPTQVLEGTSPYFGYSIAGNMDLDRNSYPDLAVGSLSDSVTIFRSRPVINILKTITVTPNRIDLRQKSMCGSPSGICLKVKACFEYTAKPSGYNPPISILGILEAEKERRKSGLSSRVQFRNQGSEPKYTQELTLNRQKQRACMEETLWLQENIRDKLRPIPITASVEIQEPSSRRRVNSLPEVLPILNSNEAKTVQTDVHFLKEGCGDDNVCNSNLKLEYKFGTREGNQDKFSYLPIQKGIPELVLKDQKDIALEITVTNSPSDPRNPRKDGDDAHEAKLIATFPDTLTYSAYRELRAFPEKQLSCVANQNGSQADCELGNPFKRNSSVTFYLILSTTEVTFDTTDLDINLKLETTSNQDNLAPITAKAKVVIELLLSVSGVAKPSQVYFGGTVVGEQAMKSEDEVGSLIEYEFRVINLGKPLKNLGTATLNIQWPKEISNGKWLLYLMKVESKGLEQIVCEPHNEINYLKLKESHNSRKKRELPEKQIDDSRKFSLFPERKYQTLNCSVNVRCVNIRCPLRGLDSKASLVLRSRLWNSTFLEEYSKLNYLDILLRASIDVTAAAQNIKLPHAGTQVRVTVFPSKTVAQYSGVAWWIILLAVLAGILMLALLVFLLWKCGFFKRSRYDDSIPRYHAVRIRKEEREIKDEKHMDNLEKKQWITKWNENESYS
In the case of B2, the binding entry was “binds”.
